Measured values published in US20100061989A1.

Legend:
[1] = target: T1, NF-E4 (endogenous, K562 cells) (human) (UniProt Q86UQ8); test: PRMT-5 immunoprecipitates from untransfected K562 cell extract, western blot with NF-E4 or PRMT-5 antibodies
T1 sequence (looked up): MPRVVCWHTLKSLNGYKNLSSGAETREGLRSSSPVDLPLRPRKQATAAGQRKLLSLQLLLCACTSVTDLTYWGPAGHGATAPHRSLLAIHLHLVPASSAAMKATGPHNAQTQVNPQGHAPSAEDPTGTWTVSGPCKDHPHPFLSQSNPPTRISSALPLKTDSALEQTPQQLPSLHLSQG

[2] = target: T2, GST fusion protein containing amino acids 1-179 (full length) of NF-E4 (UniProt Q86UQ8); test: GST pull-down: 35S-labeled PRMT-5 on GST-NF-E4 bound to glutathione beads, autoradiography
T2 sequence (looked up): T1 sequence (looked up)

[3] = target: T1, NF-E4 (endogenous, K562 cells) (human); test: co-immunoprecipitation of endogenous proteins from K562 cell extract with PRMT-5 antibody, western blot

Measured: binding

protein methyltransferase PRMT-5 (human, untagged) (enzyme)
binds: all assays above

No constants are given. Whether binding was seen depends on the method and setting. A result given as binding can be weak or reduced; the word gives no strength. For part of these data: Binding seen in cells or lysates may run through a third protein. For part of these data: Sequences can lack the tags named with a protein.
